Source: patent publication US20250121104A1 (FUSION PHARMACEUTICALS, published 2025)
No constants are given. Whether binding was seen depends on the method and setting. Some results given as binding are weak or reduced against the parent protein; the word gives no strength.

Protein sequences, listed by entry. Tags and fused reporters are not part of them. Lines headed by an entry give the natural chain unless they say otherwise; changes in a name come on top.
UniProt P08581: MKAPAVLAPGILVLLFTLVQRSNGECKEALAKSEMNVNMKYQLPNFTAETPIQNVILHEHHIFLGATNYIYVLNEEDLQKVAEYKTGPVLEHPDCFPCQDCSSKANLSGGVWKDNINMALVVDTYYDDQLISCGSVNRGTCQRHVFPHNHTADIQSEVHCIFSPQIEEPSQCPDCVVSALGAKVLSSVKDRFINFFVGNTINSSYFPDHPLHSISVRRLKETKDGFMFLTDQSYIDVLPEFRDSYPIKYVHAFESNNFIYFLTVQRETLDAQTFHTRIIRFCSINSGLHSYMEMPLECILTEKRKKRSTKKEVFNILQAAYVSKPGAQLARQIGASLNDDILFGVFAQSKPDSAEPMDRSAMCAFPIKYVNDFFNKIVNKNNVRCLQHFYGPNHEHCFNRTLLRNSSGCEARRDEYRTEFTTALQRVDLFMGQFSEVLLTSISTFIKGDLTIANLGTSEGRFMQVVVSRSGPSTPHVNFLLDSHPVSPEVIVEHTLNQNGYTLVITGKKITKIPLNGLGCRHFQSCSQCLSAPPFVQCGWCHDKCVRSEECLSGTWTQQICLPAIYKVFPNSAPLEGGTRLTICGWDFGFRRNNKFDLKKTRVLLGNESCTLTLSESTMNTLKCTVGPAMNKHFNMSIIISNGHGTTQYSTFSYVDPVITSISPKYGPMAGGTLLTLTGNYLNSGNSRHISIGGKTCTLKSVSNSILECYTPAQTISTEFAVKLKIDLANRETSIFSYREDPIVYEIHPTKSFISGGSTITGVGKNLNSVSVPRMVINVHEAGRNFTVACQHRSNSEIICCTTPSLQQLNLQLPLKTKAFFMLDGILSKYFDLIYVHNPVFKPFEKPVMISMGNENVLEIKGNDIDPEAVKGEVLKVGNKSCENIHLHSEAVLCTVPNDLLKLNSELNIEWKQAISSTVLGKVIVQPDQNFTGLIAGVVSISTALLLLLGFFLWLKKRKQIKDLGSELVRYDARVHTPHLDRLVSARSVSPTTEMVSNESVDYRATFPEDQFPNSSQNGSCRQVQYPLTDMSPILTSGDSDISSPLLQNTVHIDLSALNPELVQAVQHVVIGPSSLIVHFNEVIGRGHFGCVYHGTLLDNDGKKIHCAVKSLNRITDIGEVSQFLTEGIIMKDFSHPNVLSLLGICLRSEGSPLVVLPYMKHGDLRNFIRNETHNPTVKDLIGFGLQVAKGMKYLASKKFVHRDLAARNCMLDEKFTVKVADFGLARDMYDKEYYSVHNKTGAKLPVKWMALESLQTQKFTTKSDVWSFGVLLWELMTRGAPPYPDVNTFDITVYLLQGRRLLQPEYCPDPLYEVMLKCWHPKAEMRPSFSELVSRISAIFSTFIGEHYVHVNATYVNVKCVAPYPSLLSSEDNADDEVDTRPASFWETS

What was measured:
mouse EGFR (recombinant) [1] = biological target: T1, mouse EGFR (recombinant) (mouse, UniProt Q01279 25-647); test: ELISA (legend of FIG. 3A)
T1 construct: also called murine EGFR

[2] = biological target: cynomolgus monkey EGFR (recombinant, soluble monomeric) (cynomolgus monkey); test: ELISA (legend of FIG. 3A)
[3] = biological target: cynomolgus monkey cMET (recombinant, soluble monomeric) (cynomolgus monkey); test: ELISA (legend of FIG. 3A)
[4] = biological target: human EGFR (recombinant, soluble monomeric) (human) (UniProt P00533); test: ELISA (legend of FIG. 3A)
[5] = biological target: human cMET (recombinant, soluble monomeric) (human) (UniProt P08581); test: ELISA (legend of FIG. 3A)
mouse EGFR (recombinant) [6] = biological target: T1, mouse EGFR (recombinant); test: ELISA, antigen coated at 1 µg/mL, antibody titrated from 10 µg/mL, anti-human Fab-HRP
[7] = biological target: cynomolgus monkey EGFR (recombinant, soluble monomeric) (cynomolgus monkey); test: as above
[8] = biological target: cynomolgus monkey cMET (recombinant, soluble monomeric) (cynomolgus monkey); test: as above
[9] = biological target: human EGFR (recombinant, soluble monomeric) (human) (UniProt P00533); test: as above
[10] = biological target: human cMET (recombinant, soluble monomeric) (human) (UniProt P08581); test: as above
[11] = biological target: human EGFR (recombinant, soluble monomeric) (human) (UniProt P00533); test: BLI (Octet384), His-tagged human cMET on Ni-NTA sensors, then 66 nM antibody, then 500 nM human EGFR
[12] = biological target: human cMET (recombinant, soluble monomeric) (human) (UniProt P08581); test: as above
[13] = biological target: EGFR and cMET co-expressed on the surface of tumour cell lines (HCC827, HT29, H441, H1975) (UniProt P00533); test: live cell confocal fluorescence microscopy, AlexaFluor647-labelled antibody pre-bound to H1975 cells

Measured: binding

B1: QD6/B09-57 DuetMab (bispecific antibody, V domains shown)
VH 1: QVQLVQSGAEVKKPGSSVKVSCKASGGTFSDNDFSWVRQAPGQGLEWMGAIVAVVRTETYAQKFQDRVKITADISTRTTYMELSSLRSEDTAVYYCARRLMSAISGPGAPLLMWGQGTLVTVSS
VL 1: QSALTQPRSVSGSPGQSVTISCTGTSSDVGGYNYVSWYQQHPGKAPKLMIYDVSERPSGVPDRFSGSKSGNTASLTISGLQAEDEADYYCFSYTSSDTLEIFGGGTKLTVL
VH 2: QVQLVQSGAEVKKPGASVKVSCKASGYTFTDYYIHWVRQATGQGLEWMGWMNPNSGNTGYAQKFQGRVTMTRDTSISTAYMELSSLRSEDTAVYYCARGQGYTHSWGQGTMVTVSS
VL 2: DIQMTQSPSTLSASVGDRVTITCRASEGIYHWLAWYQQKPGKAPKLLIYKASSLASGVPSRFSGSGSGTEFTLTISSLQPDDFATYYCQQYSNYPPTFGGGTKLEIK
notes: also called QD6/B09 DuetMab; QD6/B09-AlexaFluor647
binds: all assays above

B2: B09-57 IgG (antibody, V domains shown)
VH: B1 VH 2
VL: B1 VL 2
notes: also called B09-GL; anti-cMET antibody
binds: [3] | [5] | [8] | [10] | [12]
